Measured values taken from the supplement of paper PMC6411743.
± gives the standard deviation of the averaged measurements. This is one part of the list.

The chains behind the UniProt entries cited, without tags or fusion partners. Where a name states a change or a piece, a line headed by the entry shows the natural chain unless it says otherwise.
UniProt Q86W74: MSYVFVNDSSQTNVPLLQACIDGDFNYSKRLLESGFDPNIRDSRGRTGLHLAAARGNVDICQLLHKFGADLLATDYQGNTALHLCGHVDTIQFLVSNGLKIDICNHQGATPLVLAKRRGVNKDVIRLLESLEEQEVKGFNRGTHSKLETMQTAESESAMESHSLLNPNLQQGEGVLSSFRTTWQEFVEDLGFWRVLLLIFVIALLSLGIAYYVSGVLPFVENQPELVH
UniProt Q9UKM7: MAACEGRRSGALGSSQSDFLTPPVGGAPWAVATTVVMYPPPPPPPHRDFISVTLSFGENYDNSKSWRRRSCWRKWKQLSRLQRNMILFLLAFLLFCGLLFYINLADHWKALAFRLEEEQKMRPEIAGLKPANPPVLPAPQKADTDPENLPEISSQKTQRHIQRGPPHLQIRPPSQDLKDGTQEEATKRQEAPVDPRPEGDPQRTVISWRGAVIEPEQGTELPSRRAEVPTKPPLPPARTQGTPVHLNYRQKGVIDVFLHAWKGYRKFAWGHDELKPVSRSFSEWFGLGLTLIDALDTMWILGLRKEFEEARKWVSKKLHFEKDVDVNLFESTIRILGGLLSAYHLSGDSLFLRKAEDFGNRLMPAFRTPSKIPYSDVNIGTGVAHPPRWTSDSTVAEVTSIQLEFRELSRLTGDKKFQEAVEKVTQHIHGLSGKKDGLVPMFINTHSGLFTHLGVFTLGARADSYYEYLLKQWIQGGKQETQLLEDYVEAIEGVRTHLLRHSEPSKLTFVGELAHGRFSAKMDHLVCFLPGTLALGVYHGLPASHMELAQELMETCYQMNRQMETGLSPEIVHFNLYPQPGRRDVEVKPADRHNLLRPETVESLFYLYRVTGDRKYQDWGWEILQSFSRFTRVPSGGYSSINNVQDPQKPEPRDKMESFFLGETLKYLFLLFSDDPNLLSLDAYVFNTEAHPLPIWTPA
UniProt Q8IWX8: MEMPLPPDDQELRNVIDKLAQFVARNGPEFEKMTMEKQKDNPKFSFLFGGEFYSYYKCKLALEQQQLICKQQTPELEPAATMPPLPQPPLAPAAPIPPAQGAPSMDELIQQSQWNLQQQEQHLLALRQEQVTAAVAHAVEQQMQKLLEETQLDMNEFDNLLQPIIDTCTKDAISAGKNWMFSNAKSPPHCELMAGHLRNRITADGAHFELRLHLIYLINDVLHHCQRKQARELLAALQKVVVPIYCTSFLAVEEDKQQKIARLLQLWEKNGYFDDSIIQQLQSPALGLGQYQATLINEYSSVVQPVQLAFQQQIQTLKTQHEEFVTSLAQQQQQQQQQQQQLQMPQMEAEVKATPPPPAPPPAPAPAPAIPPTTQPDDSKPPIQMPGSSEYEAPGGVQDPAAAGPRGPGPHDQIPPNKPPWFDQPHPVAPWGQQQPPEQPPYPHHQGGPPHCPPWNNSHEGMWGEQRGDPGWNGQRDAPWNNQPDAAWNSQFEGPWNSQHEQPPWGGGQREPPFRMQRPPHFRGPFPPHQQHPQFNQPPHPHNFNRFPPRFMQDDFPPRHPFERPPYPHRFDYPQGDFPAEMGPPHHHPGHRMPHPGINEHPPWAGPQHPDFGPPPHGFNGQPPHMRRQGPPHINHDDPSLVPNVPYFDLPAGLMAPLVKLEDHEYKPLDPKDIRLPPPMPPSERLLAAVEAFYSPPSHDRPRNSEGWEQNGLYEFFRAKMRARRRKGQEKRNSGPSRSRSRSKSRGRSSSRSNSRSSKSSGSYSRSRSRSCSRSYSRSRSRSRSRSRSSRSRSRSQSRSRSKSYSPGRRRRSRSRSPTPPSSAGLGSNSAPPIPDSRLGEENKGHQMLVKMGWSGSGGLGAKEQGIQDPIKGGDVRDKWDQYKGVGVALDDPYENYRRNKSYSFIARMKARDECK
UniProt O75821, whole entry: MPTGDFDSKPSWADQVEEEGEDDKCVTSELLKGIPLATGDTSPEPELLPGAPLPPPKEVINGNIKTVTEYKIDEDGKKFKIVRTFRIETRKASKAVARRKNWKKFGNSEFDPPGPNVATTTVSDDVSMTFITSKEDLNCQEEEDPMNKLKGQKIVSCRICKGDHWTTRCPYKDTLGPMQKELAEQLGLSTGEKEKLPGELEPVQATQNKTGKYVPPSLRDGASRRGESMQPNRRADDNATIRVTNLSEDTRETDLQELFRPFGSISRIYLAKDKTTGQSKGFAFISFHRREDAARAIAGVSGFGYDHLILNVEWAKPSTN
UniProt P27708: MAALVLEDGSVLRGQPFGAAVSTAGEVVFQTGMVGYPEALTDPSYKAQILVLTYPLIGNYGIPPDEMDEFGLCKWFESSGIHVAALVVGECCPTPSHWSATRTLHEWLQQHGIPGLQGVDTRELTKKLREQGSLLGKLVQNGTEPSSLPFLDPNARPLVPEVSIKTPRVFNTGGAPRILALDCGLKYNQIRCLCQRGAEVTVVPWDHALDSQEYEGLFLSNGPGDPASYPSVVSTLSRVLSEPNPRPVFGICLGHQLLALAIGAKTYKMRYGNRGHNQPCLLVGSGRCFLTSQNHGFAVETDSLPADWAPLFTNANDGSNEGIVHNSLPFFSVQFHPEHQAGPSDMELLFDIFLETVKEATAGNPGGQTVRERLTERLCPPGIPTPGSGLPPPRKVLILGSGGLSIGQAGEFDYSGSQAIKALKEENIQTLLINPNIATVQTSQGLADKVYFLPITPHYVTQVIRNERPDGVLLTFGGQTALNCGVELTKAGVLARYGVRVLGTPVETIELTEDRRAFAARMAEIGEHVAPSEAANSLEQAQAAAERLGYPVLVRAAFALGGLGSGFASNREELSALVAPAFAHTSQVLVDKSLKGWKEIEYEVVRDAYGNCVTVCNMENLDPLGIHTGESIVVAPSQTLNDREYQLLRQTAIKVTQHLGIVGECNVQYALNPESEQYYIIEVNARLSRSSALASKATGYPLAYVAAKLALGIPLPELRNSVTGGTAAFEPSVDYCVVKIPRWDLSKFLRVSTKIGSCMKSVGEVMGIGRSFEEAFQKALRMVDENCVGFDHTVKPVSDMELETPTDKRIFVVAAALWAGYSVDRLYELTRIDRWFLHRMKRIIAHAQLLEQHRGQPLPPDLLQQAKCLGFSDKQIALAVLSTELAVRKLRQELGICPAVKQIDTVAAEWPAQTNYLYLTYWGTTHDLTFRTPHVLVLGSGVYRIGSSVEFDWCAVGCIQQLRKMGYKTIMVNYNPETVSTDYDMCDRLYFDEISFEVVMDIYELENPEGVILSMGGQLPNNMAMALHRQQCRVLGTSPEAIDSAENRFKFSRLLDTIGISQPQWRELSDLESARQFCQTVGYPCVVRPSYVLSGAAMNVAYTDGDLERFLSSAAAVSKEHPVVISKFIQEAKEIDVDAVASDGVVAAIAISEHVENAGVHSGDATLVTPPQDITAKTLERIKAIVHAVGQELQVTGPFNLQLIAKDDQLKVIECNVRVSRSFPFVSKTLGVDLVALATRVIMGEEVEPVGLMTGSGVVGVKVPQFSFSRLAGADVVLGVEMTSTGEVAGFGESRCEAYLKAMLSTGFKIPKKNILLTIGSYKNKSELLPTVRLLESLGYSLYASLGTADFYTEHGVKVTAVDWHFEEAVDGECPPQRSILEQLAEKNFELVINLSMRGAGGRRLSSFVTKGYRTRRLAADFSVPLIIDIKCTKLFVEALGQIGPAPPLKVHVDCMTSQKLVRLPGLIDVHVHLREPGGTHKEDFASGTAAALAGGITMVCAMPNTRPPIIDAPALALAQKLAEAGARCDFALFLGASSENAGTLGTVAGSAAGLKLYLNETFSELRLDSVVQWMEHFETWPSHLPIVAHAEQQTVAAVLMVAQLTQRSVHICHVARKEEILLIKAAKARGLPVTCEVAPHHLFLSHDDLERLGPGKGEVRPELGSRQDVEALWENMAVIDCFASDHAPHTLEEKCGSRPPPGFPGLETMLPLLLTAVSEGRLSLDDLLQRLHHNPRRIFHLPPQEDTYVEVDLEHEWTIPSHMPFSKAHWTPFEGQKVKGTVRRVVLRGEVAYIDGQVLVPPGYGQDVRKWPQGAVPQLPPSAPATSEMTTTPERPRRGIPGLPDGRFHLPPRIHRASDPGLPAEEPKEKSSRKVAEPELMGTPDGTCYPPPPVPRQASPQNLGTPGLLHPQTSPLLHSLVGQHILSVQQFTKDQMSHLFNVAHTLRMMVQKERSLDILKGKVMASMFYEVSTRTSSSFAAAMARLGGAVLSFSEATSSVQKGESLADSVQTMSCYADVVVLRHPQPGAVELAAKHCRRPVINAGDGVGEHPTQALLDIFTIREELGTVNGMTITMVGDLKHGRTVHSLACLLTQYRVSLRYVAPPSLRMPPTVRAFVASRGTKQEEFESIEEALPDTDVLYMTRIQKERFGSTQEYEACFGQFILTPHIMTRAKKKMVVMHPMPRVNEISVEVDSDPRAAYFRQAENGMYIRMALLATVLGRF
UniProt Q9NTK5, whole entry, looked up: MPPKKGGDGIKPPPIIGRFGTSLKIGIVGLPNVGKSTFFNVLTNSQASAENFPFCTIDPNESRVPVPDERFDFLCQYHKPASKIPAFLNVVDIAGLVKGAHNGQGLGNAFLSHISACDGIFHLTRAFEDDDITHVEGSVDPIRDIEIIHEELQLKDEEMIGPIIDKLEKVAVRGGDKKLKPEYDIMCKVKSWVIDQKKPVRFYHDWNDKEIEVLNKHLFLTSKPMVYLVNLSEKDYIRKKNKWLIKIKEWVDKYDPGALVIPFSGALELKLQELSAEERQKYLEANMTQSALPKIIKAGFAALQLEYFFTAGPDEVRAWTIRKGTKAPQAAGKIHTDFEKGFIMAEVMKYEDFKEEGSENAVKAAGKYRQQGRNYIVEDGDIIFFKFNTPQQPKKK
UniProt Q96Q05, whole entry: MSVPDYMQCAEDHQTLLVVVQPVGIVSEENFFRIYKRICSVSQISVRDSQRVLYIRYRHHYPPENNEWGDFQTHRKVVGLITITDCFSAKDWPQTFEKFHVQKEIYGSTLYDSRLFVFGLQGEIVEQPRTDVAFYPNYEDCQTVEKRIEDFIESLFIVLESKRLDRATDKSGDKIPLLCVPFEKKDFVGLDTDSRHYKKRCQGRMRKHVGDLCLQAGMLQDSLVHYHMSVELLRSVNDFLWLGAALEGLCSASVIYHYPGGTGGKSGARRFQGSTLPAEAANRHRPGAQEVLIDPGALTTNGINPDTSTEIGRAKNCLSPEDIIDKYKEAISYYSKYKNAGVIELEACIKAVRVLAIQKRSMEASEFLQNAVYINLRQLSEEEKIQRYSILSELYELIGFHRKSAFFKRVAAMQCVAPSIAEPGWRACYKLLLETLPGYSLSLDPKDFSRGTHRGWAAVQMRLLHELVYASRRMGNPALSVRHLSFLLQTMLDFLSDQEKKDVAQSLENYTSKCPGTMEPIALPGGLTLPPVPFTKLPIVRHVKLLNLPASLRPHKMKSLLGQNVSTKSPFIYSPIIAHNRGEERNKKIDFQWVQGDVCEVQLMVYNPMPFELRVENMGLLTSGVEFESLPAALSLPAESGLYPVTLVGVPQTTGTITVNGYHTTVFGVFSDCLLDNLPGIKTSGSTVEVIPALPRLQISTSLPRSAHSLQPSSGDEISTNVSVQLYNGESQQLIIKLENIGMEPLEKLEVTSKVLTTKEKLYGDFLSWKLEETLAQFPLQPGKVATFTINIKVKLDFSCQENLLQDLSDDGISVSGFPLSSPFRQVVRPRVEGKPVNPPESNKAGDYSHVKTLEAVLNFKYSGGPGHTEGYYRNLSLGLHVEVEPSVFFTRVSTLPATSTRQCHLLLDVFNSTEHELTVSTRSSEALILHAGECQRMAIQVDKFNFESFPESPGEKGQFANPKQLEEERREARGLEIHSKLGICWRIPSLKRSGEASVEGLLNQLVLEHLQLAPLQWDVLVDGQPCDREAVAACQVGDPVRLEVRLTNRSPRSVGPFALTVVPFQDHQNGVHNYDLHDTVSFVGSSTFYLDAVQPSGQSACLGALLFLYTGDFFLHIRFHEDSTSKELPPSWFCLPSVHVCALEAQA
UniProt Q9UKL0, whole entry: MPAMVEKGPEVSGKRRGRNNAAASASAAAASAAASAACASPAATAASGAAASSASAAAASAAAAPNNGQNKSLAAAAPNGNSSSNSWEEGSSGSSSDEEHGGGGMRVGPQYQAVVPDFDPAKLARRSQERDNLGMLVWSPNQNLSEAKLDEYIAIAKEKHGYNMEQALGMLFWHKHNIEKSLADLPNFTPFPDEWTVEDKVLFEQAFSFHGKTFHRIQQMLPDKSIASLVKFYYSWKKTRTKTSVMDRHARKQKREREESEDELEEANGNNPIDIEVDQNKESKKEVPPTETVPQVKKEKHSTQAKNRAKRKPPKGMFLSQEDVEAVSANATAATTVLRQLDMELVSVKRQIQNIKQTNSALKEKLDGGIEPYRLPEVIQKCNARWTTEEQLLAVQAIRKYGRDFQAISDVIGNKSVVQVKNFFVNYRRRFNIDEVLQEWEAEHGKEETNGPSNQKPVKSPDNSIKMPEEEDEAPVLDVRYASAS

Compound: Nc1nc2c(ncn2[C@@H]2O[C@H](COP(=O)(O)OP(=O)(O)OP(=O)(O)O)[C@@H](O)[C@H]2O)c(=O)[nH]1 [guanosine triphosphate]
Experiment: NP40-soluble protein abundance relative to vehicle (solubility fold change) (ratio); higher = more soluble protein in presence of GTP
Outline: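 Jurkat crude lysate (Dounce-homogenised) was treated with eight concentrations from 0.1 to 10 mM for 10 min at room temperature, then 3 min at 37 °C. It was solubilised with 0.8% NP40 and benzonase (60 min, 4 °C) and ultracentrifuged, and the supernatant was TMT-labelled for LC-MS/MS. Intensities were vsn-normalised, and the value is the fold change against the NP40-processed vehicle per replicate, from three independent experiments.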

Target	NP40-soluble protein abundance (concentration: 0.1mM)	NP40-soluble protein abundance (concentration: 0.5mM)	NP40-soluble protein abundance (concentration: 1mM)	NP40-soluble protein abundance (concentration: 2mM)	NP40-soluble protein abundance (concentration: 4mM)	NP40-soluble protein abundance (concentration: 6mM)	NP40-soluble protein abundance (concentration: 8mM)	NP40-soluble protein abundance (concentration: 10mM)
J3KP26 and related entries (UniProt Q86W74)	1.01 ± 0.15	0.934 ± 0.054	0.965 ± 0.092	0.962 ± 0.042	0.96 ± 0.034	0.951 ± 0.065	0.89 ± 0.038	0.94551 ± 0.00081
H0YG20 and related entries (UniProt Q9UKM7)	0.975 ± 0.055	0.954 ± 0.05	0.823 ± 0.037	0.93 ± 0.087	0.972 ± 0.071	0.876 ± 0.058	0.874 ± 0.035	0.958 ± 0.048
J3QK89 and related entries (UniProt Q8IWX8)	1 ± 0.052	1.05 ± 0.023	1.14 ± 0.043	1.17 ± 0.095	1.26 ± 0.12	1.26 ± 0.12	1.34 ± 0.19	1.38 ± 0.21
K7EL60 and related entries (UniProt O75821)	0.992 ± 0.019	0.99 ± 0.03	1.04 ± 0.063	1.05 ± 0.047	1.18 ± 0.12	1.3 ± 0.14	1.46 ± 0.25	1.59 ± 0.29
H0YBZ4 and related entries (UniProt Q15390)	1.06 ± 0.062	1.06 ± 0.2	1.11 ± 0.043	1.09 ± 0.039	1.07 ± 0.056	1.07 ± 0.08	1.08 ± 0.015	1.11 ± 0.15
H3BVG0 and related entries (UniProt Q8N1F7)	0.971 ± 0.035	0.999 ± 0.043	0.937 ± 0.032	0.9515 ± 0.0053	0.961 ± 0.015	0.998 ± 0.032	0.976 ± 0.058	1.02 ± 0.042
H3BVG2 and related entries (UniProt Q2M296)	1.0106 ± 0.00013	0.9902 ± 0.0065	0.985 ± 0.023	1.01 ± 0.017	1.03 ± 0.012	1.04 ± 0.022	1.07 ± 0.066	1 ± 0.034
G5E9V5 and related entries (UniProt P82650)	1.07 ± 0.069	1.13 ± 0.18	1.22 ± 0.22	1.26 ± 0.25	1.29 ± 0.28	1.24 ± 0.28	1.24 ± 0.31	1.13 ± 0.27
H7BZB3 and related entries (UniProt P27708)	1.06 ± 0.078	1.12 ± 0.14	1.1 ± 0.17	1.19 ± 0.25	1.2 ± 0.25	1.18 ± 0.27	1.12 ± 0.2	1.08 ± 0.2
J3KQ32 and related entries (UniProt Q9NTK5)	0.941 ± 0.044	0.947 ± 0.033	0.881 ± 0.039	0.863 ± 0.03	0.843 ± 0.05	0.833 ± 0.026	0.815 ± 0.071	0.809 ± 0.082
H3BM91 and related entries (UniProt Q9H0A8)	1.06 ± 0.067	1.02 ± 0.1	0.969 ± 0.097	1 ± 0.15	1.01 ± 0.11	0.925 ± 0.1	0.923 ± 0.05	0.9065 ± 0.007
H0YBR0 and related entries (UniProt Q96Q05)	1.08 ± 0.0046	1.14 ± 0.05	1.01 ± 0.026	1.02 ± 0.061	1.06 ± 0.11	0.996 ± 0.02	0.974 ± 0.035	0.945 ± 0.051
K7EJH0 and related entries (UniProt Q8NBT2)	0.946 ± 0.05	0.921 ± 0.036	1.03 ± 0.099	1.01 ± 0.042	0.996 ± 0.067	0.984 ± 0.032	0.988 ± 0.062	1.13 ± 0.13
H3BPB8 and related entries (UniProt P34949)	0.967 ± 0.098	1.02 ± 0.1	0.995 ± 0.15	0.991 ± 0.098	0.978 ± 0.15	0.94 ± 0.097	0.943 ± 0.13	0.945 ± 0.11
K7EP14 and related entries (UniProt P07992)	0.867 ± 0.027	0.881 ± 0.036	0.919 ± 0.082	0.929 ± 0.016	0.879 ± 0.029	0.934 ± 0.026	0.867 ± 0.045	0.909 ± 0.038
J3KN32 and related entries (UniProt Q9UKL0)	0.979 ± 0.05	0.961 ± 0.034	1.05 ± 0.033	1.02 ± 0.062	1.08 ± 0.1	1.1 ± 0.083	1.12 ± 0.1	1.1 ± 0.12

Reprinted at random: 2 records from the list
Target	NP40-soluble protein abundance (concentration: 0.1mM)	NP40-soluble protein abundance (concentration: 0.5mM)	NP40-soluble protein abundance (concentration: 1mM)	NP40-soluble protein abundance (concentration: 2mM)	NP40-soluble protein abundance (concentration: 4mM)	NP40-soluble protein abundance (concentration: 6mM)	NP40-soluble protein abundance (concentration: 8mM)	NP40-soluble protein abundance (concentration: 10mM)
K7EP14 and related entries (UniProt P07992)	0.867 ± 0.027	0.881 ± 0.036	0.919 ± 0.082	0.929 ± 0.016	0.879 ± 0.029	0.934 ± 0.026	0.867 ± 0.045	0.909 ± 0.038
H0YBR0 and related entries (UniProt Q96Q05)	1.08 ± 0.0046	1.14 ± 0.05	1.01 ± 0.026	1.02 ± 0.061	1.06 ± 0.11	0.996 ± 0.02	0.974 ± 0.035	0.945 ± 0.051
